Assay results as given in article PMC5430542.
Where a chain is given by its changes, count along the chain named. No constants are given. Whether binding was seen depends on the method and setting. In cells and extracts the contact can be indirect. Some results given as binding are weak or reduced against the parent protein; the word gives no strength. Where a sequence is shown, tags or fusion partners need not be part of it.

Chains of the proteins cited; added tags and fusions are not shown. Lines headed by an entry give the natural chain unless they say otherwise; changes in a name come on top.
UniProt Q05655: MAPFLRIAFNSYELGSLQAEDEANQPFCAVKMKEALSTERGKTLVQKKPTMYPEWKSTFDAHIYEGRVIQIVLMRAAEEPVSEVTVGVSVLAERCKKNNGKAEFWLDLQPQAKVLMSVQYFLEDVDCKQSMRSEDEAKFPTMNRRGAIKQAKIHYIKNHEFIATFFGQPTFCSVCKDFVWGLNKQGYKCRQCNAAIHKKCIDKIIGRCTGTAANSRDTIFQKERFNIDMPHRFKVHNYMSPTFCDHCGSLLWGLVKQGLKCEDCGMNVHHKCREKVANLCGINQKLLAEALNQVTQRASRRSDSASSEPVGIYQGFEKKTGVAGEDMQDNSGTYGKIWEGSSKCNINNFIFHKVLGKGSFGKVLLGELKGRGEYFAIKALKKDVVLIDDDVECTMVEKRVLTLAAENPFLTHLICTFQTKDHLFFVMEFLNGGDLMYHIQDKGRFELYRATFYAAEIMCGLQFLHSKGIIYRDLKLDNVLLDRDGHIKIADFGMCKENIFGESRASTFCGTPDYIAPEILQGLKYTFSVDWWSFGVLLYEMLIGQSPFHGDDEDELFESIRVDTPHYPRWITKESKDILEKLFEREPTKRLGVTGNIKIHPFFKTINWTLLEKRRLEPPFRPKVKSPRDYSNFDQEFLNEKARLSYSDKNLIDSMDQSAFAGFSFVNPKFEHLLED

Assays:
GFP-PKD2 WT (human) = biological target: T1, GFP-PKD2 WT (human) (UniProt Q9BZL6); assay: co-IP; GFP-PKD2 (WT or deletion mutants) precipitated with GFP trap (GFP nanobody beads) from lysates of transfected HEK293 cells stimulated with H2O2 (10 mM, 10 min); blot for PKCδ
T1 sequence: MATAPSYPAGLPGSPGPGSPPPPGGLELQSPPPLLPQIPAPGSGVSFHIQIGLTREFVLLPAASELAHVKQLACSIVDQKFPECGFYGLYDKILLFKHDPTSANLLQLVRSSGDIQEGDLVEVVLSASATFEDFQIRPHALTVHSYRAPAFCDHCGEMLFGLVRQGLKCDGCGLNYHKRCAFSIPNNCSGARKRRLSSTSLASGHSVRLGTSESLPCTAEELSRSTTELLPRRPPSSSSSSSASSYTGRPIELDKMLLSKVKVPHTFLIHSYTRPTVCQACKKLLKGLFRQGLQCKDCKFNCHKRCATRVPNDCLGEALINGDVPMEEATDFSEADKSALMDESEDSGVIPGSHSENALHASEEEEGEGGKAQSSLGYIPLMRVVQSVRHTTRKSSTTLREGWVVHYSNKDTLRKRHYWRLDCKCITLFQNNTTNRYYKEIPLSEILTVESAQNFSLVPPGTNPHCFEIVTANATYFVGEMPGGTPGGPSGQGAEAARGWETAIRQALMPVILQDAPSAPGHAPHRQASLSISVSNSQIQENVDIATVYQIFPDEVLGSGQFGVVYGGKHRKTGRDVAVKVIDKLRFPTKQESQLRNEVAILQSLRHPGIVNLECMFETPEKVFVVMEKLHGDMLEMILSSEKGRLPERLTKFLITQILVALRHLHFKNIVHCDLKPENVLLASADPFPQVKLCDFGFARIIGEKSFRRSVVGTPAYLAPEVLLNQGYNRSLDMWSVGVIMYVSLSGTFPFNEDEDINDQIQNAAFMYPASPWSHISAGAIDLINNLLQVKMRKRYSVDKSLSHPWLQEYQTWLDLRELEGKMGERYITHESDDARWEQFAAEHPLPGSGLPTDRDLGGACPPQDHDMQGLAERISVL

[1] = biological target: T2, FLAG-PKD2 WT (protein kinase D2, wild type) (human) (UniProt Q9BZL6); assay: co-IP; FLAG-PKD2 (WT or Y87F) precipitated with anti-FLAG M2 beads from lysates of transfected HEK293 cells stimulated with H2O2 (10 mM, 10 min), with or without pretreatment with PP2 (10 µM) or STI-571 (5 µM); lysis in 50 mM Tris pH 7.4, 150 mM NaCl, 15 mM EDTA, 1% NP-40; three washes with NENT150; blot for PKCδ
T2 sequence: T1 sequence

FLAG-PKD2 Y87F (human) = biological target: T3, FLAG-PKD2 Y87F (human) (UniProt Q9BZL6); assay: as above
T3 sequence: T1 sequence with Y87F

Measured: binding

PKCδ (from UniProt Q05655 1-676) (enzyme)
binds: all assays above
